In PMC7862700:
The entries are a selection whose mix differs from that of the whole data set. At the low end of the ranking the order means little.

Sequences of proteins named here, by UniProt entry; tags and fusion partners are left off. A change or cut given only in a name is not applied to a line headed by its entry.
UniProt O43186: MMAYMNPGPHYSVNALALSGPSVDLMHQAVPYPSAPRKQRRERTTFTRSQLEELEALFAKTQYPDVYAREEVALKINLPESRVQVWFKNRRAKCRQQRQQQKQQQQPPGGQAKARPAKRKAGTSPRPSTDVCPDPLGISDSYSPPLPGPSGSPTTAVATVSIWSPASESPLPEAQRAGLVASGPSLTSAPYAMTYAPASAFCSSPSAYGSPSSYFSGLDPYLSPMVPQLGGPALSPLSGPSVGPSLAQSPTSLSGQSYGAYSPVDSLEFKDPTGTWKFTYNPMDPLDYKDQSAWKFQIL

How the values were obtained:
CRX = CRX (UniProt O43186); test: DAPPL (digital affinity profiling via proximity ligation, sequencing); settings: 10 mM Tris-HCl pH 7.5, 50 mM NaCl, 1 mM DTT, 4% glycerol, room temperature, 30 min; GST-TFs on glutathione beads, 16-mer random dsDNA library, 0.1% …; high values mean tight binding; double strand, one strand shown; scale: fold enrichment (6-mer frequency, TF over GST control)
ELF5 = biological target: T1, ELF5 (UniProt Q9UKW6-2); test: as above; settings: 10 mM Tris-HCl pH 7.5, 50 mM NaCl, 1 mM DTT, 4% glycerol, room temperature, 30 min; GST-TFs on glutathione beads, 16-mer random dsDNA library, 0.1% …; high values mean tight binding; double strand, one strand shown; scale: fold enrichment (6-mer frequency, TF over GST control)
T1 sequence: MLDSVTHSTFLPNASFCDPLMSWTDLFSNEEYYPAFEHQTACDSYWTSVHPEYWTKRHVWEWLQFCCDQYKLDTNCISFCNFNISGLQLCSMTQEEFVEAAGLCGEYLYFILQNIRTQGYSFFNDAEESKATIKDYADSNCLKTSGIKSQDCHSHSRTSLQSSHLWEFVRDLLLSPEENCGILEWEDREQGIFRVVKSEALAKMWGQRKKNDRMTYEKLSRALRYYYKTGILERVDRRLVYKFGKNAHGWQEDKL

| Sequence | binding signal (CRX) | binding signal (ELF5) |
| --- | --- | --- |
| AACTCT | 1.37 | 1.35 |
| TAGGAA | 0.998 | 1.29 |
| ACGATA | 1.26 | 1.09 |
| CTCAGC | 1.31 | 1.08 |
| GGAAGT | 0.493 | 3.88 |
| TGCGCA | 0.958 | 1.06 |
| GTACAC | 0.798 | 1.2 |
| CTGACG | 0.823 | 1.09 |
| AAATCG | 1.26 | 0.999 |
| TGTACC | 0.919 | 1.27 |
| TAGGCA | 1.08 | 0.928 |
| ACGAAA | 1.09 | 1.09 |
| TGGGAC | 0.695 | 0.858 |
| GCACCT | 0.842 | 0.978 |
| GGTACA | 0.722 | 1 |
| TCATAC | 1.02 | 1.09 |

Random excerpt: 3 entries already listed, in no set order.

| Sequence | binding signal (CRX) | binding signal (ELF5) |
| --- | --- | --- |
| GGAAGT | 0.493 | 3.88 |
| CTGACG | 0.823 | 1.09 |
| TAGGCA | 1.08 | 0.928 |

Carrying on:

| Sequence | binding signal (CRX) | binding signal (ELF5) |
| --- | --- | --- |
| CGCGGC | 0.872 | 0.948 |
| GCTGAC | 0.883 | 1.05 |
| GTTACC | 0.815 | 1.11 |
| TTGGCT | 1.33 | 0.985 |
| GCGCCC | 0.794 | 0.977 |
| TTGAAA | 1.24 | 1.03 |
| TGGCTC | 1.3 | 1.21 |
| TACAGC | 1.07 | 1.07 |
| GAAATT | 1.08 | 1.51 |
| GCGACA | 0.724 | 0.919 |
| TAACAG | 1.3 | 0.985 |
| TGTCCG | 0.754 | 1.62 |
| GTACCC | 0.669 | 1.01 |
| ATTGGC | 1.07 | 1.08 |
| AACCGC | 1.02 | 1 |
| CACGCA | 0.759 | 0.937 |
